Measured values taken from patent publication US20200048693.
For some assays here: No signal at the amounts used counts as a negative. For some assays here: Protein sequences can lack the tags named with them. For some assays here: A weaker result is weaker than the reference pair of the same experiment. For some assays here: For at least one entry, the source does not settle the construct or the ends of the probe. For some assays here: Whether high values mean tight binding is not given here for every scale.

The chains behind the UniProt entries cited, without tags or fusion partners. Residues count along the entry.
UniProt P00639, 23-282: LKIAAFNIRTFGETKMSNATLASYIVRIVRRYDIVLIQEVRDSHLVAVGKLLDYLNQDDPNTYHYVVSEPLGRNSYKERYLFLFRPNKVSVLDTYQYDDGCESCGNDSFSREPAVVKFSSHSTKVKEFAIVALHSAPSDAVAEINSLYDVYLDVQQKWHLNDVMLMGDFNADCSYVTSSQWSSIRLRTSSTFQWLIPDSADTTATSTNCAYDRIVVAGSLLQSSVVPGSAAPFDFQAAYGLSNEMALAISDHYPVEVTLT

Legend:
[1] = test system: dsDNase (shrimp double strand-specific DNase); experiment: activity assay; conditions: FRET nuclease assay, 1x First-Strand buffer, 37 C; cleaved; purified recombinant protein; protein details: ArcticZymes; label: 5'-FAM and 5'-HEX, 3'-BHQ1
DNase I = DNase I (UniProt P00639); experiment: enzyme reaction in vitro; conditions: First-Strand buffer, 37 C, purified native protein, protein details: Amplification Grade, Life Technologies
[2] = molecular target: T1, T4 gene 32 protein (Enterobacteria phage T4) (UniProt P03695); experiment: inhibition of the protein; conditions: purified recombinant protein, protein details: Roche Applied Science
T1 sequence (looked up, limits assumed): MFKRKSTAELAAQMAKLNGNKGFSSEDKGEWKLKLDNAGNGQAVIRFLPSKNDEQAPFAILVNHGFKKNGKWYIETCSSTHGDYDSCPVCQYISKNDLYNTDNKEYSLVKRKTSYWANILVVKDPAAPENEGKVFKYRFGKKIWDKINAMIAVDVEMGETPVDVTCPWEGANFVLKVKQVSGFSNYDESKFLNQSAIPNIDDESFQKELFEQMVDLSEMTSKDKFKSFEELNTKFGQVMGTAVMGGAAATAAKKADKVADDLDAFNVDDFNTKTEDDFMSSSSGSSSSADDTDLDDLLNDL

[3] = test system: dsDNase (shrimp double strand-specific DNase); experiment: enzyme reaction in vitro; conditions: almost no activity, First-Strand buffer, 37 C, purified recombinant protein, protein details: ArcticZymes, label: HEX, BHQ1
[4] = label: 5'-FAM and 5'-HEX, 3'-BHQ1

CGCCATCGGAGGTTC (double strand) [double-stranded DNA dual probe]
activity on this sequence [1]: active
activity on this sequence (DNase I; [4]): active
binding result [2, 4]: no binding

CGCCATCGGAGGTTC / GAACCUCCGAUGGCG [RNA-DNA hybrid dual probe]
activity on this sequence (DNase I; selective cleavage of DNA strand in hybrid, label: FAM on DNA, HEX on RNA, BHQ1, DNA:RNA …): active
binding signal (% residual DNase I activity) ([2]; DNA in hybrid, PrimeScript buffer, 37 C, indirect, label: FAM on DNA, HEX on RNA, BHQ1, DNA:RNA hybrid): 60

GAACCTCCGATGGCG [single-stranded DNA HEX probe]
activity on this sequence (DNase I; low activity on ssDNA, label: HEX, BHQ1, single-stranded DNA): less active
activity on this sequence ([3]; single-stranded DNA): not active

GAACCUCCGAUGGCG [single-stranded RNA HEX probe]
activity on this sequence [3]: not active
